From patent publication US20070212704
The exact form of at least one protein or probe is not confirmed.

Chains of the proteins cited; added tags and fusions are not shown.
UniProt P19821, whole entry: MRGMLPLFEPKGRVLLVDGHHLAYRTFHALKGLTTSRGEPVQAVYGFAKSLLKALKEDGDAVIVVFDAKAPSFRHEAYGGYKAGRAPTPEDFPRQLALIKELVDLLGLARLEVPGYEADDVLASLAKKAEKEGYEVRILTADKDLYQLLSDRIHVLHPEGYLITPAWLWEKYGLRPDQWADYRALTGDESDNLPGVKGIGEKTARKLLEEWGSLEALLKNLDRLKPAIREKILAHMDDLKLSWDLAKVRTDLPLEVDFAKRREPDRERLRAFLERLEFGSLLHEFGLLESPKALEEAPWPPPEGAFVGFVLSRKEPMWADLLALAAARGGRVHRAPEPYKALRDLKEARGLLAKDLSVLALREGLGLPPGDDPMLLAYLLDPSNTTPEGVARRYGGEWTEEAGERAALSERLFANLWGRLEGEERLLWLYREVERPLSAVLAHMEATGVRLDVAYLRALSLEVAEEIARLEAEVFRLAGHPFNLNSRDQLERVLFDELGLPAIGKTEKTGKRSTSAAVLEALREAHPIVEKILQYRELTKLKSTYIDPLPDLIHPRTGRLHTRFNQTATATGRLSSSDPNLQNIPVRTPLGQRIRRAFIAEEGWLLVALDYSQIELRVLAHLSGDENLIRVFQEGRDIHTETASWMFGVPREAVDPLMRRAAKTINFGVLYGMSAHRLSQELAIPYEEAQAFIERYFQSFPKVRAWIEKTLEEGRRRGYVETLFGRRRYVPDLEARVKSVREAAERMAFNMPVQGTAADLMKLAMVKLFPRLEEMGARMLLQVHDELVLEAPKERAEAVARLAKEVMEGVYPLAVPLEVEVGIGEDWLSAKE

Biological target: AmpliTaq DNA polymerase (UniProt P19821)
Experiment: activity assay
Settings: 7-deaza-dA at the four positions marked in Table 1: TCTGGGATA(deazaA)TT(deazaA)TGGTA(deazaA)ATATGT(Dabcyl-T)TTC(deazaA)TATTTATTATAATTATC(MGB-NFQ); 3' minor groove binder; purified recombinant protein; protein details: Applied Biosystems; label: internal Dabcyl-T in loop, 3' MGB-NFQ; folded or branched DNA; dose not given here

TCTGGGATAATTATGGTAAATATGTTTTCATATTTATTATAATTATC [DNA polymerase inhibitor E]
functional effect of the aptamer: active
